In patent US12486514B2, “Method to specifically stimulate survival and expansion of genetically-modified immune cells” (National University of Singapore, priority 2018, dated 2025):

B1: EpoRm: truncated mutant Epo receptor, codon 439 TGG (Trp) changed to TAG (stop), SEQ ID NO: 6, expressed in T cells (protein)
chain: MDHLGASLWPQVGSLCLLLAGAAWAPPPNLPDPKFESKAALLAARGPEELLCFTERLEDLVCFWEEAASAGVGPGNYSFSYQLEDEPWKLCRLHQAPTARGAVRFWCSLPTADTSSFVPLELRVTAASGAPRYHRVIHINEVVLLDAPVGLVARLADESGHVVLRWLPPPETPMTSHIRYEVDVSAGNGAGSVQRVEILEGRTECVLSNLRGRTRYTFAVRARMAEPSFGGFWSAWSEPVSLLTPSDLDPLILTLSLILVVILVLLTVLALLSHRRALKQKIWPGIPSPESEFEGLFTTHKGNFQLWLYQNDGCLWWSPCTPFTEDPPASLEVLSERCWGTMQAVEPGTDDEGPLLEPVGSEHAQDTYLVLDKWLLPRNPPSEDLPGPGGSVDIVAMDEGSEASSCSSALASKPSPEGASAASFEYTILDPSSQLLRP
B2: EpoR: wild-type human erythropoietin receptor (SEQ ID NO: 2) expressed in T cells by MSCV retroviral transduction (protein)
chain: MDHLGASLWPQVGSLCLLLAGAAWAPPPNLPDPKFESKAALLAARGPEELLCFTERLEDLVCFWEEAASAGVGPGNYSFSYQLEDEPWKLCRLHQAPTARGAVRFWCSLPTADTSSFVPLELRVTAASGAPRYHRVIHINEVVLLDAPVGLVARLADESGHVVLRWLPPPETPMTSHIRYEVDVSAGNGAGSVQRVEILEGRTECVLSNLRGRTRYTFAVRARMAEPSFGGFWSAWSEPVSLLTPSDLDPLILTLSLILVVILVLLTVLALLSHRRALKQKIWPGIPSPESEFEGLFTTHKGNFQLWLYQNDGCLWWSPCTPFTEDPPASLEVLSERCWGTMQAVEPGTDDEGPLLEPVGSEHAQDTYLVLDKWLLPRNPPSEDLPGPGGSVDIVAMDEGSEASSCSSALASKPSPEGASAASFEYTILDPSSQLLRPWTLCPELPPTPPHLKYLYLVVSDSGISTDYSSGDSQGAQGGLSDGPYSNPYENSLIPAAEPLPPSYVACS

Test system: peripheral blood T lymphocytes
Assay: Surface EpoR and GFP expression by flow cytometry in transduced T lymphocytes
Format: cell-based, human
Conditions: for mean fluorescence intensity (MFI) of EpoR / percentage of GFP+ T cells expressing EpoR: 18 experiments with T lymphocytes from 7 donors; for MFI of GFP / percentage of GFP+ T cells: overall GFP expression after transduction

Molecule	persistence of surface EpoR after exposure to Epo (10 IU/mL Epo, T cells from 3 donors)	mean fluorescence intensity (MFI) of EpoR	percentage of GFP+ T cells expressing EpoR	MFI of GFP	percentage of GFP+ T cells	percentage of transduced T lymphocytes (GFP+) expressing EpoR (5 experiments with T cells from 4 donors)
B1	longer persistence after exposure to Epo	8,773±5,851	93.1%±6.1%	8,331±3,343	80.4%±7.5%	–
B2	–	3,620±2,449	71.9%±14.1%	7,003±2,820	75.2%±8.4%	74.9%±4.8%
